Results are given in words; binding and its absence hold for the method and conditions named. Binding seen in cells or lysates may run through a third protein. Sequences can lack the tags named with a protein.
Tests used:
AtLYK4-FLAG-HA = molecular target: T1, AtLYK4-FLAG-HA (UniProt O64825); experiment: co-IP; anti-HA beads on total protein of N. benthamiana leaves transiently co-expressing a FLAG-HA-tagged protein with CP; 4 °C, 3 h
T1 sequence: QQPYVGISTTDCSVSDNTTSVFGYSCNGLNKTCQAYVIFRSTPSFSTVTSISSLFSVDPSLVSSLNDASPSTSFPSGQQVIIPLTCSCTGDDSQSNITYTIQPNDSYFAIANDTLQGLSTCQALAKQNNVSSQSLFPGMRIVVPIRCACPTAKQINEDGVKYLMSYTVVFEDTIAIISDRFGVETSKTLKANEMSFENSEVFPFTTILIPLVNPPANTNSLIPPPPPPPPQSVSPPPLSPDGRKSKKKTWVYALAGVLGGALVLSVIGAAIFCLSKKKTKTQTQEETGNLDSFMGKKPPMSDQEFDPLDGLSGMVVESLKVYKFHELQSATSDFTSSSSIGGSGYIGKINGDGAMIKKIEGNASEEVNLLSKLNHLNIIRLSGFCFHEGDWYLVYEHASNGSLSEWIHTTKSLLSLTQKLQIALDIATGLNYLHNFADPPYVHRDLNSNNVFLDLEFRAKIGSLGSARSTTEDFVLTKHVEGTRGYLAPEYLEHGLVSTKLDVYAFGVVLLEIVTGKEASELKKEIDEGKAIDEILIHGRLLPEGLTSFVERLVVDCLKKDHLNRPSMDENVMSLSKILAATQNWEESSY

Protein sequences, listed by entry. Tags and fused reporters are not part of them.
UniProt P68559: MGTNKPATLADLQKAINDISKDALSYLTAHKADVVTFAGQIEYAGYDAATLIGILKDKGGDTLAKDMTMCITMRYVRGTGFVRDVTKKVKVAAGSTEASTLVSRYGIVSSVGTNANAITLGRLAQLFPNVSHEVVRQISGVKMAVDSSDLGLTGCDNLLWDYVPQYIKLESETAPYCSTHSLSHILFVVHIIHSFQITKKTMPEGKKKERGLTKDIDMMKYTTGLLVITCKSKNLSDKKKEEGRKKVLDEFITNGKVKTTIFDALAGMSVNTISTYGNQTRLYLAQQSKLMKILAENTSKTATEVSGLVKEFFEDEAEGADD

[1] = molecular target: T2, AtLYK5-FLAG-HA (Arabidopsis) (UniProt O22808); experiment: as above
T2 sequence: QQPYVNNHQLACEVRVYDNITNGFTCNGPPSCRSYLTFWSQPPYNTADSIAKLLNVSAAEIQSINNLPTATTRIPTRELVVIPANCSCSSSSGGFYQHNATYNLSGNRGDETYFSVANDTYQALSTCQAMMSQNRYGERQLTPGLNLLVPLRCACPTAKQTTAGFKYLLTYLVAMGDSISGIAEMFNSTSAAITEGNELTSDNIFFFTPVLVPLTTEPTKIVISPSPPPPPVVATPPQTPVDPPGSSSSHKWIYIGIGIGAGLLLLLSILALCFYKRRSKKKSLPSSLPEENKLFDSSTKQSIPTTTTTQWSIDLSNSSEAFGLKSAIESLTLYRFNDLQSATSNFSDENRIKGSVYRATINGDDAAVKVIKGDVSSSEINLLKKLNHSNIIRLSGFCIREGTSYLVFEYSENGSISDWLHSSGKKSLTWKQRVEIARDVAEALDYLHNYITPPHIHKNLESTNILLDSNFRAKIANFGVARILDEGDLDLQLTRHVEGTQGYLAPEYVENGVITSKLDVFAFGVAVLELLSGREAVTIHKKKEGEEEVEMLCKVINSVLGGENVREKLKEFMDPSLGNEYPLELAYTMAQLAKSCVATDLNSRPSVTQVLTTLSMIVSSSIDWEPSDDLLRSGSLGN

In the case of “RSV coat protein (CP), untagged (from UniProt P68559 1-322)”, the binding (AtLYK4-FLAG-HA) is reported as “no binding” and the binding [1] is reported as “no binding”.

Reference: article PMC12708648 (2025)
